Source: the supplement of paper PMC10689618
Structures can show the parent of a compound that is named as a salt. This is one part of the list. Many values rest on one well or one pass, so single values are uncertain.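 Primary human fetal astrocytes engulfed labelled rat cortical synaptosomes, measured as a red/green ratio corrected for calcein live-cell signal and scaled to the plate median. Toxicity meant calcein falling over 30%; decreased phagocytosis meant below 70% of median above 5 µM.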

Key:
Details in all cases: 24 h
[1] = test system: Human fetal astrocytes; test: loss of total cells relative to no-compound high-control median (toxicity); higher = more toxic (fewer cells)
[2] = test system: Human fetal astrocytes; test: as above; remark: listed apart in the source
[3] = test system: Human fetal astrocytes; test: synaptosome phagocytosis (pHrodo/calcein intensity ratio) relative to plate median of data wells; higher = more phagocytosis
[4] = test system: Human fetal astrocytes; test: as above; remark: listed apart in the source

SMILES	loss of total cells ([1]; 1.39 µM) [%]	loss of total cells ([1]; 2.78 µM) [%]	loss of total cells ([1]; 5.56 µM) [%]	loss of total cells ([1]; 11.11 µM) [%]	loss of total cells ([1]; 22.22 µM) [%]	loss of total cells ([2]; 1.39 µM) [%]	loss of total cells ([2]; 2.78 µM) [%]	loss of total cells ([2]; 5.56 µM) [%]	loss of total cells ([2]; 11.11 µM) [%]	loss of total cells ([2]; 22.22 µM) [%]	synaptosome phagocytosis ([3]; 1.39 µM) [%]	synaptosome phagocytosis ([3]; 2.78 µM) [%]	synaptosome phagocytosis ([3]; 5.56 µM) [%]	synaptosome phagocytosis ([3]; 11.11 µM) [%]	synaptosome phagocytosis ([3]; 22.22 µM) [%]	synaptosome phagocytosis ([4]; 1.39 µM) [%]	synaptosome phagocytosis ([4]; 2.78 µM) [%]	synaptosome phagocytosis ([4]; 5.56 µM) [%]	synaptosome phagocytosis ([4]; 11.11 µM) [%]	synaptosome phagocytosis ([4]; 22.22 µM) [%]
NC(=O)c1cnccn1 [Pyrazinecarboxamide]	-9	-29	-15.7	-15.7	-18.9	18.7	-14.6	-4.9	10.7	-3.3	82.2	97.9	116	110	104	126	101	117	95.2	101
CCOC(=O)C(C)(C)Oc1ccc(Cl)cc1 [Clofibrate]	-12.1	-26.2	-13.4	-7.6	-3.4	-25	-23	-6.2	1.6	2.8	104	96.9	116	84.1	118	102	84.7	84.3	141	105
Cc1ccc(/C(=C\CN2CCCC2)c2ccccn2)cc1 [Triprolidine hydrochloride]	3.4	-12.9	10.1	1.1	-30.5	4.5	7.8	-0.7	13.5	8.2	74.7	111	96.2	119	92.6	117	116	108	106	112
CNCCCC1c2ccccc2C=Cc2ccccc21 [Protriptyline hydrochloride]	0.3	-14.7	-19.1	1.1	-9.9	-16.3	1.3	38.9	44.5	5.6	80.3	91.6	115	120	67.4	104	96.4	98.4	129	60.8
CNCCC(Oc1ccc(C(F)(F)F)cc1)c1ccccc1 (stereo not given) [Fluoxetine hydrochloride]	-4.6	-28.2	5.8	-16.6	4	-32.3	26.2	13	48.9	40.8	25.4	59.1	52.4	65.3	20.2	117	86.4	93.1	84.4	72.5
CNC[C@H](O)c1ccc(O)c(O)c1 [(-)-Epinephrine bitartrate]	2.1	-5.1	9.1	-11.2	8.8	18.1	-14.6	13.9	-1.4	30.1	101	102	108	98.8	90.2	114	102	112	73.4	124
CC(=O)OCC1=C(C(=O)O)N2C(=O)[C@@H](NC(=O)CSc3ccncc3)[C@H]2SC1 [Cephapirin sodium]	-18	-18.3	2.3	-18.4	-3.4	-28.2	7	-3.9	-43	-8.5	92.7	91.4	76.8	154	115	97.7	93	106	96	89.5
CC(C)(C)c1ccc(C(O)CCCN2CCC(C(O)(c3ccccc3)c3ccccc3)CC2)cc1 (stereo not given) [Terfenadine]	-6.5	-0.9	-4.5	-7.3	5.8	-47.6	-23.8	3.7	18	-5.9	92.6	97.8	144	102	109	93	108	95.1	107	74.6
CN1CCC[C@H]1c1cccnc1 [(-)-Nicotine hydrogen tartrate salt]	-20.4	-26.7	-12.7	-12.4	-1.9	14.9	11.3	-8.4	38.1	23.3	126	79.6	79.7	111	146	112	125	86.8	98.1	112
NCCSSCCN [Cystamine dihydrochloride]	-15.8	-17.4	-6	-4	7.9	-21.3	-0.4	8.1	25	31.1	112	89.1	104	92.7	66.8	119	86.9	100	95.3	99.3
OC(CCN1CCCCC1)(c1ccccc1)C1CCCCC1 (stereo not given) [Trihexyphenidyl hydrochloride]	-10.2	-12.9	-9	-1.9	-2.5	6.2	-5.1	-9.1	-13.5	20.4	99	106	117	88	95.4	97.5	92.9	98.6	82.3	91.6
CCn1cc(C(=O)O)c(=O)c2cc(F)c(N3CCNC(C)C3)c(F)c21 (stereo not given) [Lomefloxacin hydrochloride]	-4.3	-3.2	5.2	29.5	-5.6	0.8	-1.5	20.7	-11.7	18.7	76.2	107	110	117	86.5	67.2	98.4	76.9	80.2	107
O=C(O)c1cccnc1Nc1cccc(C(F)(F)F)c1 [Niflumic acid]	-9	14	15.5	7.6	14	-1.1	9.7	11.6	-6.3	-0.8	126	97.9	141	126	71.1	109	100	112	96.6	131
NCCc1ccc(O)c(O)c1 [Dopamine hydrochloride]	1.3	-4.3	-17.3	-8.5	-7.2	-8	-25.4	-25.1	5.5	-5.8	88.2	104	61.9	114	86.1	95.2	127	85	113	102
CCCCNc1ccc(C(=O)OCCN(C)C)cc1 [Tetracaine hydrochloride]	0.3	-21.9	1.1	9.6	-0.8	-9.2	-24.7	11.1	2.6	7.6	75.6	87.4	67.3	91.3	82.4	110	89.6	94.9	88.7	76.5
CCN(CC)CC(=O)Nc1c(C)cccc1C [Lidocaine hydrochloride]	-13.7	5.9	3.3	20	6.5	41.2	-15.3	11.1	8.9	-27.1	60.3	41.2	28.4	62.7	63.4	103	103	80.5	123	132
CN1CCC(=C2c3ccccc3C=Cc3ccccc32)CC1 [Cyproheptadine hydrochloride]	-18.7	-10.5	-10.6	-4.9	0.4	-18.5	-2	37.4	47.7	11.5	72.7	101	121	111	98.7	69.7	84.6	96.5	111	113
CC1COc2c(N3CCN(C)CC3)c(F)cc3c(=O)c(C(=O)O)cn1c23 (stereo not given) [Ofloxacin]	1.4	7.7	-1.4	19	26.2	8.3	-4	-8.1	-28.1	11.9	132	124	106	85.1	122	102	121	100	101	128
CC[N+](CC)(CC)CCOc1cccc(OCC[N+](CC)(CC)CC)c1OCC[N+](CC)(CC)CC [Gallamine triethiodide]	-8.8	-9.4	10.7	-8.5	1.6	-3.3	-29.5	-15.3	7.8	-9.4	122	111	89.5	126	89.7	120	111	130	120	99.1
CCC1(c2ccccc2)C(=O)NCNC1=O [Primidone]	-18.3	-41.6	-1.7	-24.1	-14.8	-2.1	-14.6	-13.2	7.2	31.3	117	109	77.4	100	145	113	109	88.2	88.9	76.6
Clc1ccc(C(c2ccccc2Cl)C(Cl)Cl)cc1 (stereo not given) [1-(2-Chlorophenyl)-1-(4-chlorophenyl)-2,2-dichloroethane]	4	-11.7	-9.7	-13	8.6	-10	2.7	0.9	1.6	24.4	67	88.4	95.2	81.2	68.1	121	118	88.9	108	121
O=C1NCC2(CCN(CCc3ccccc3)CC2)O1 [Fenspiride hydrochloride]	-1.3	-10.3	9.1	-11.2	-8.8	-2.5	-30.8	0.9	0.8	-0.6	106	98.6	100	105	106	77.9	126	118	110	114
CN(C)CCC(c1ccc(Cl)cc1)c1ccccn1 (racemic) [(±)-Chlorpheniramine maleate]	-6.6	-1.8	-0.5	-20.2	17.7	-16.9	-31	1.9	-1	4.7	122	86.8	97.8	93.1	122	118	98.9	125	132	116
CNCCC=C1c2ccccc2CCc2ccccc21 [Nortriptyline hydrochloride]	-30.8	6.8	6.1	19	15.9	-22.4	-13.7	-5.1	-4.7	9.6	108	82.8	84.8	77.4	66.8	94.7	102	58.8	82.6	58.6
C#CCN(C)CCCOc1ccc(Cl)cc1Cl [Clorgyline hydrochloride]	-26.1	-5.9	9.9	11.4	26.2	3.2	3.2	19.6	1.3	6.1	98.4	128	120	112	130	93.5	94	72.5	80.4	99.4
Cc1cnc(C(=O)NCCc2ccc(S(=O)(=O)NC(=O)NC3CCCCC3)cc2)cn1 [Glipizide]	5.4	-18.8	-3.3	-30.9	-11.2	17.7	-54.8	18.6	-3	17.1	101	78.2	108	81.8	109	147	101	120	90.1	91.3

Of the compounds above, these have a CF3 group.
SMILES	loss of total cells ([1]; 1.39 µM) [%]	loss of total cells ([1]; 2.78 µM) [%]	loss of total cells ([1]; 5.56 µM) [%]	loss of total cells ([1]; 11.11 µM) [%]	loss of total cells ([1]; 22.22 µM) [%]	loss of total cells ([2]; 1.39 µM) [%]	loss of total cells ([2]; 2.78 µM) [%]	loss of total cells ([2]; 5.56 µM) [%]	loss of total cells ([2]; 11.11 µM) [%]	loss of total cells ([2]; 22.22 µM) [%]	synaptosome phagocytosis ([3]; 1.39 µM) [%]	synaptosome phagocytosis ([3]; 2.78 µM) [%]	synaptosome phagocytosis ([3]; 5.56 µM) [%]	synaptosome phagocytosis ([3]; 11.11 µM) [%]	synaptosome phagocytosis ([3]; 22.22 µM) [%]	synaptosome phagocytosis ([4]; 1.39 µM) [%]	synaptosome phagocytosis ([4]; 2.78 µM) [%]	synaptosome phagocytosis ([4]; 5.56 µM) [%]	synaptosome phagocytosis ([4]; 11.11 µM) [%]	synaptosome phagocytosis ([4]; 22.22 µM) [%]
CNCCC(Oc1ccc(C(F)(F)F)cc1)c1ccccc1 (stereo not given) [Fluoxetine hydrochloride]	-4.6	-28.2	5.8	-16.6	4	-32.3	26.2	13	48.9	40.8	25.4	59.1	52.4	65.3	20.2	117	86.4	93.1	84.4	72.5
O=C(O)c1cccnc1Nc1cccc(C(F)(F)F)c1 [Niflumic acid]	-9	14	15.5	7.6	14	-1.1	9.7	11.6	-6.3	-0.8	126	97.9	141	126	71.1	109	100	112	96.6	131
